{"source": "patent US20060252034A1", "molecular_target": "T1, carboxyl terminus of EphB3 (UniProt P54753)", "T1 sequence (looked up)": "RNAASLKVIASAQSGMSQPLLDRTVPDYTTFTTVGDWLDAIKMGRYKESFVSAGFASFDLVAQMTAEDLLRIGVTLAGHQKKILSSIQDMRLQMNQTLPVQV", "assay": "yeast two hybrid screen, EphB3 carboxyl terminus as bait", "note": "No constants are given. Whether binding was seen depends on the method and setting. Some results given as binding are weak or reduced against the parent protein; the word gives no strength.", "data": [{"binder": "novel protein containing ring finger domaine (R1P4) (protein) MGTTSDEMVSVEQTSSSSLNPLCFECGQQHWTRENHLYNYQNEVDDDLVCHICLQPLLQPLDTPCGHTFCYKCLRNFLQEKDFCPLDRKRLHFKLCKKSSILVHKLLDKLLVLCPFSSVCKDVMQRCDLEAHLKNRCPGASHRRVALERRKTSRTQAEIENENGPTLLDPAGTLSPEADCLGTGAVPVERHLTSASLSTWSEEPGLDNPAFEESAGADTTQQPLSLPEGEITTIEIHRSNPYIQLGISIVGGNETPLINIVIQEVYRDGVIARDGRLLAGDQILQVNNYNISNVSHNYARAVLSQPCNTLHLTVLRERRFGNRAHNHSDSNSPREEIFQVALHKRDSGEQLGIKLVRRTDEPGVFILDLLEGGLAAQDGRLSSNDRVLAINGHDLKYGTPELAAQIIQASGERVNLTIARPGKPQPGNTIREAGNHSSSSQHHTPPPYYSRPSSHKDLTQCVTCQEKHITVKKEPHESLGMTVAGGRGSKSGELPIFVTSVPPHGCLARDGRIKRGDVLLNINGIDLTNLSHSEAVAMLKASAASPAVALKALEVQIVEEATQNAEEQPSTFSENEYDASWSPSWVMWLGLPSTLHSCHDVVLRRSYLGSWGFSIVGGYEENHTNQPFFIKTIVLGTPAYYDGRLKCGDMIVAVNGLSTVGMSHSALVPMLKEQRNKVTLTVICWPGSLV", "values": [{"measurement": "binding", "value": "binds"}]}]}
